For this experiment, the target named is RNA polymerase (RNAP), β subunit RpoB (B. subtilis) (UniProt P37870). In words: two-hybrid.

Amino acid sequences for entries named in this document (tags omitted).
UniProt P37870: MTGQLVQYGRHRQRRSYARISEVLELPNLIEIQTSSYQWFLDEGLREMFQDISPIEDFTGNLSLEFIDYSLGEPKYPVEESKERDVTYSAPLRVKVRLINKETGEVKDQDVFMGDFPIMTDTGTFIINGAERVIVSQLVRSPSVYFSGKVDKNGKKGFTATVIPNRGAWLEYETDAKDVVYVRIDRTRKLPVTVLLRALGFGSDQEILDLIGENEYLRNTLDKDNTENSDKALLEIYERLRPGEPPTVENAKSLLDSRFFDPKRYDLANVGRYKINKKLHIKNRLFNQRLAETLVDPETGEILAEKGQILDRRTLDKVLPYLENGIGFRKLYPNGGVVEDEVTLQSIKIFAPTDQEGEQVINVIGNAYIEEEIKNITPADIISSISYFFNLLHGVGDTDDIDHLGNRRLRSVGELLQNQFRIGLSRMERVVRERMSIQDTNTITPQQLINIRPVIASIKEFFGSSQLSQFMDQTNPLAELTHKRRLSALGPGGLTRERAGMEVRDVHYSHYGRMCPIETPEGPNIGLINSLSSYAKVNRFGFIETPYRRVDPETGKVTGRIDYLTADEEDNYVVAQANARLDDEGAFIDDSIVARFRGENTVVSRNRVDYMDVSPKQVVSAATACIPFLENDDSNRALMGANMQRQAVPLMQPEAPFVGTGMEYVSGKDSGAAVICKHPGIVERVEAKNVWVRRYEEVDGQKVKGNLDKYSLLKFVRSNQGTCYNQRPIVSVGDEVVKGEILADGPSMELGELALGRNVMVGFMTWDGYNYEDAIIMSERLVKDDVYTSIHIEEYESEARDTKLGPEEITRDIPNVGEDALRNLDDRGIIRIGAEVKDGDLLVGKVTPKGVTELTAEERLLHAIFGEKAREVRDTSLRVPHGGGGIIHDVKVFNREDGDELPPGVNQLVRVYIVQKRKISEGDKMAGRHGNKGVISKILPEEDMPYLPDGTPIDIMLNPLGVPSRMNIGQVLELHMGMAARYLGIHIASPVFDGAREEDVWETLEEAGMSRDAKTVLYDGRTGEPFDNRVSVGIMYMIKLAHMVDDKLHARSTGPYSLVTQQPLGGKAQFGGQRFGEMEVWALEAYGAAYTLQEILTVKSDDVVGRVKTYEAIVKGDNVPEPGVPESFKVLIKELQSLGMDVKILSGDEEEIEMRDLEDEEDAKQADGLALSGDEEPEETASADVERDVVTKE

These are yes or no findings as the source states them, for the method shown. Some binding calls cover weakened binding; strength is not graded here.

B1: B. subtilis Mfd (protein, UniProt P37474 1-1177)
chain: MDNIQTFIKESDDFKSIINGLHEGLKEQLLAGLSGSARSVFTSALANETNKPIFLITHNLYQAQKVTDDLTSLLEDRSVLLYPVNELISSEIAVASPELRAQRLDVINRLTNGEAPIVVAPVAAIRRMLPPVEVWKSSQMLIQVGHDIEPDQLASRLVEVGYERSDMVSAPGEFSIRGGIIDIYPLTSENPVRIELFDTEVDSIRSFNSDDQRSIETLTSINIGPAKELIIRPEEKARAMEKIDSGLAASLKKLKADKQKEILHANISHDKERLSEGQTDQELVKYLSYFYEKPASLLDYTPDNTLLILDEVSRIHEMEEQLQKEEAEFITNLLEEGKILHDIRLSFSFQKIVAEQKRPLLYYSLFLRHVHHTSPQNIVNVSGRQMQSFHGQMNVLAGEMERFKKSNFTVVFLGANKERTQKLSSVLADYDIEAAMTDSKKALVQGQVYIMEGELQSGFELPLMKLAVITEEELFKNRVKKKPRKQKLTNAERIKSYSELQIGDYVVHINHGIGKYLGIETLEINGIHKDYLNIHYQGSDKLYVPVEQIDQVQKYVGSEGKEPKLYKLGGSEWKRVKKKVETSVQDIADDLIKLYAEREASKGYAFSPDHEMQREFESAFPYQETEDQLRSIHEIKKDMERERPMDRLLCGDVGYGKTEVAIRAAFKAIGDGKQVALLVPTTILAQQHYETIKERFQDYPINIGLLSRFRTRKEANETIKGLKNGTVDIVIGTHRLLSKDVVYKDLGLLIIDEEQRFGVTHKEKIKQIKANVDVLTLTATPIPRTLHMSMLGVRDLSVIETPPENRFPVQTYVVEYNGALVREAIERELARGGQVYFLYNRVEDIERKADEISMLVPDAKVAYAHGKMTENELETVMLSFLEGESDVLVSTTIIETGVDIPNVNTLIVFDADKMGLSQLYQLRGRVGRSNRVAYAYFTYRRDKVLTEVAEKRLQAIKEFTELGSGFKIAMRDLTIRGAGNLLGAQQHGFIDSVGFDLYSQMLKEAIEERKGDTAKTEQFETEIDVELDAYIPETYIQDGKQKIDMYKRFRSVATIEEKNELQDEMIDRFGNYPKEVEYLFTVAEMKVYARQERVELIKQDKDAVRLTISEEASAEIDGQKLFELGNQYGRQIGLGMEGKKLKISIQTKGRSADEWLDTVLGMLKGLKDVKKQTISST
For B1, the binding result is “binds”.

These data come from paper doi:10.1101/2020.05.28.121731.
